Several values for one entry are separate records, joined by “and”; a condition that tells them apart may be missing. Equal values may be shown once.
Assay: Static biodegradation test (OECD 301E), DOC removal
Conditions: 28 days, initial 25 mg·L^−1, aerobic, dark
Experimental: The static biodegradation tests were conducted according to the OECD 301E guidelines, which focus on the removal of organic compounds measured as dissolved organic carbon (DOC). Solutions of the surfactant and surfactant–co-surfactant mixtures, serving as the sole carbon source for microorganisms, were tested in a mineral medium inoculated and incubated under aerobic conditions in the dark for 28 days. The initial concentration of the test substance for surfactant and surfactant–co-surfactant mixtures was set at 25 mg·L^−1.
The surfactant solution, for which biodegradability was to be determined, was inoculated with 0.5 mL of water from the secondary treatment stage of a sewage treatment plant (STP) operating with activated sludge (plus code: 597G+W2, Granada, Spain). The biodegradation process was monitored by measuring the residual surfactant concentration over time through DOC determinations in samples, filtered through a 0.45 µm Millipore membrane, using the total organic carbon (TOC) analyser Shimadzu VCSH/CSH (Shimadzu Co., Kyoto, Japan). Reference assays were performed with an easily biodegradable surfactant (linear alkylbenzene sulfonate) to determine the activity of the microbial population present in the test medium. […] All samples were tested in duplicate. The experimental setup included two flasks for the blank, two for the reference surfactant, two for the abiotic assay, and two for each of the surfactant concentrations tested.
The biodegradation of surfactants and their binary mixtures was assessed under aerobic conditions following the OECD 301E guidelines for ready biodegradability. The process was tracked by measuring the dissolved organic carbon (DOC) in the samples over time. […] Abiotic control tests, using HgCl2 to inhibit biological activity, confirmed that surfactant concentrations remained at nearly 100% throughout the degradation period. […] Figure 1 illustrates the progression of ultimate biodegradation of the surfactants and binary mixtures over the testing period. The assays were initiated with surfactant concentrations of 25 mg·L^−1.
To compare and quantify the biodegradation test, two key parameters of the biodegradation profiles were defined and analysed: (a) Half-life (t1/2) is the time required for the substrate concentration to decrease by 50% from the start of the biodegradation process. This value is determined using graphical methods based on the biodegradation curve. (b) Surfactant biodegradability (B) is defined as the percentage of surfactant that is biodegraded after 50 h of assay. Half-time and surfactant biodegradability results are shown in Table 5, together with mineralization values obtained using Equation (11).(11) Mineralization (%)=DOCi− [DOC]f/ [DOC]i·100 where […]
For Capryleth-6 Carboxylic Acid [EC-R8E5], the “% Mineralization” value was 71.20% and 71.20 ± 4.32%.
For Laureth-4 Carboxylic Acid [EC-R12–14E3], the “% Mineralization” value was 57.35% and 57.35 ± 2.80%.
For “Laureth-11 Carboxylic Acid [EC-R12–14E10]”, the “% Mineralization” value was 69.35 ± 3.21%.
For Laureth-11/Myreth-11 [FAE-R12–14E11], the “% Mineralization” value was 61.30 ± 2.60%.

Source: PMC11768549, “Optimization of Toxicity, Biodegradability, and Skin Irritation in Formulations Containing Mixtures of Anionic and Nonionic Surfactants Combined with Silica Nanoparticles” (Toxics, 2025)
